# In the supplement of paper PMC12889115:
# Some of the results follow. These are raw signals, not scaled to a control.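 In the initial screen, polymyxin B was used at a concentration that permeabilizes Salmonella's outer membrane but not its inner membrane. Maximum growth was set by DMSO wells with or without polymyxin B. Since plates varied, data were ranked per plate, and compounds giving the lowest OD600 advanced as hits.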
# Test system: Salmonella enterica serovar Typhimurium SL1344
# Assay: bacterial growth OD600 after 18 h with compound and polymyxin B; higher = more bacterial growth (less inhibition)
# Details: 50 µM, Mueller-Hinton broth
SMILES,bacterial growth OD600 (polymyxin B 0.75 µg/mL),bacterial growth OD600 (polymyxin B 1 µg/mL)
O=C(c1ccc(N2CCCCC2)cc1)N(Cc1ccncc1)Cc1ccc(OCc2cccc(F)c2)cc1,0.037,
Cc1ccc(CN2CCC(CN(C)Cc3ccc(OC(F)F)cc3)CC2)o1,,0.915
CC(=O)NCC(=O)NC1CC(=O)N(CCc2cccc(Cl)c2)C1 (configuration not stated),,0.833
CN(Cc1ccncn1)C(=O)CC(c1ccccc1)c1ccccc1Cl (configuration not stated),,1.18
CC(=O)NCCNC(=O)C1(N(C)Cc2ccccc2)Cc2ccccc2C1,0.623,
CCNC(=O)c1cn(CC(C)C)cc(C(=O)NCc2ccccc2C)c1=O,0.705,
CN(C)C(=O)CCC(=O)N1CCCC(CCc2ccc(F)cc2F)C1 (configuration not stated),0.627,
COCCNC(=O)CCc1nnc(Cc2ccc(-c3ccccc3)cc2)o1,,0.827
Cc1ccccc1C1(CC(=O)N2CCN(CC(=O)N(C)C)CC2)CC(=O)N(Cc2ccccc2)C1=O (configuration not stated),0.75,
CCc1ccc(CN2CCC(n3nccc3NC(=O)c3ccc4c(c3)OCO4)CC2)o1,0.816,
O=C(c1ccc(F)c(Cl)c1)N1CCC2(CCCN(CC3CC3)C2)C1 (configuration not stated),,0.943
COc1cccc(CCNC2CCN(c3ccc(C(=O)NC4CCCC4)cc3)CC2)c1,0.784,
COc1cc(C(=O)N2CCCC(Nc3ccc(C(C)C)cc3)C2)cc(OC)c1OC (configuration not stated),,0.592
Cc1nnc2ccc(SCC(=O)NC(c3ccccc3)c3ccc(Cl)cc3)nn12 (configuration not stated),0.787,
O=C(NCc1cccnc1N1CCOCC1)c1ncoc1C1CC1,,1
O=C(Nc1ccc(-c2ccn[nH]2)cc1)C1CCCN(Cc2ccc3c(c2)CCO3)C1 (configuration not stated),0.835,

SMILES,bacterial growth OD600 (polymyxin B 0.75 µg/mL),bacterial growth OD600 (polymyxin B 1 µg/mL)
CN(C)c1ccc(C(=O)N2CCCN(c3ncccn3)CC2)cn1,,1.14
CCS(=O)(=O)Nc1cc(C(=O)N(C)C(C)c2cccs2)c2c(c1)nc(-c1ccccc1)n2C (configuration not stated),0.006,
Cc1ccccc1C(=O)NC1CC(=O)N(CC2CCCCC2)C1 (configuration not stated),,0.882
COC(=O)c1ccccc1C(=O)N1CCCC(Nc2ccc(C)c(C)c2)C1 (configuration not stated),,0.736
Cc1ccc(CN2CCN(CC3CCCCC3)C(CCO)C2)o1 (configuration not stated),,0.77
CN(CCCN1CCOCC1)C(=O)c1cc(COc2ccc(F)c(F)c2)on1,0.789,
COc1ccc(CC(=O)N(C)CC2CCCN(CCc3ccccc3OC)C2)cc1 (configuration not stated),0.81,
CC1=C(C(=O)NC2CC(=O)N(Cc3cccc4ccccc34)C2)OCCO1 (configuration not stated),,0.902
COCC1CCCN(C(=O)c2ccc(N[C@H]3CC[C@H](O)CC3)nc2)C1 (some centres not stated),,0.973
COc1ccc(CCCN2C(=O)O[C@@H]3CN(c4cc(OC)ncn4)C[C@@H]32)cc1,0.748,
COc1ccc(CCN2CC(NC(=O)C3CCCCC3)CC2=O)cc1 (configuration not stated),,0.842
O=C(Nc1ccc(Oc2ccccc2F)cc1)C1CCN(CC2CC2)CC1,0.619,
Cc1oc(-c2cccc3ccccc23)nc1CN(C)Cc1cccc2ncccc12,0.382,
COc1cc(CC2(CCC(=O)NCC(c3ccccc3)c3ccccc3)CCC(=O)N2)ccc1F (configuration not stated),0.882,
CCn1ccnc1CN1CCCC(CCc2cccc(OC)c2)C1 (configuration not stated),0.828,
O=C(c1ccc(N2CCCCC2)cc1)N1CC[C@@H](N2CCC(O)CC2)[C@H](O)C1,,1.18

# Of the compounds above, these have fluorine:
SMILES,bacterial growth OD600 (polymyxin B 0.75 µg/mL),bacterial growth OD600 (polymyxin B 1 µg/mL)
O=C(c1ccc(N2CCCCC2)cc1)N(Cc1ccncc1)Cc1ccc(OCc2cccc(F)c2)cc1,0.037,
Cc1ccc(CN2CCC(CN(C)Cc3ccc(OC(F)F)cc3)CC2)o1,,0.915
CN(C)C(=O)CCC(=O)N1CCCC(CCc2ccc(F)cc2F)C1 (configuration not stated),0.627,
O=C(c1ccc(F)c(Cl)c1)N1CCC2(CCCN(CC3CC3)C2)C1 (configuration not stated),,0.943
CN(CCCN1CCOCC1)C(=O)c1cc(COc2ccc(F)c(F)c2)on1,0.789,
O=C(Nc1ccc(Oc2ccccc2F)cc1)C1CCN(CC2CC2)CC1,0.619,
COc1cc(CC2(CCC(=O)NCC(c3ccccc3)c3ccccc3)CCC(=O)N2)ccc1F (configuration not stated),0.882,
